Data source: PubChem BioAssay AID652243 (Drosophila RNAi Screening Center, 2013)
The deposit covers about 24,000 reagents; shown is an unselected part of those that have a named target and a result. Over the whole deposit, 246 (1%) were called active. 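Plates not normalised; calls are printed but the firefly/Renilla ratio behind them is not deposited; fold cut for lowering reported inconsistently.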 Raw values are not corrected between plates. Unmarked entries are inactive. The record does not give: the amount of reagent.

Test: 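Fly regulators of androgen-dependent reporter output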 (primary screen)
Cells: Drosophila S2R+ cells
Reagents: long dsRNA against Drosophila genes
Duration: 72 h (48 h, then 24 h hormone)
Treatment: synthetic androgen R1881 at 10 nM for 24 h
Detection: 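Firefly light from an androgen-responsive reporter and Renilla control light per well, raw and unnormalised, for each of two replicates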
Reading the numbers: firefly reporter light: higher = more light from androgen-responsive reporter; Renilla control light: higher = more constitutive control signal (cell number, transfection)
Rule for the call: 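Across duplicate plates, a knock-down whose log firefly/Renilla ratio shifted a set fold down or up from the GFP/LacZ control mean was a hit; the downward cut appears as both 1.5 and 3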
Calls: active = hit: reporter lowered or raised; inactive = no hit

{"gene knocked down": "CG8519", "dsRNA": "DRSC10985", "firefly reporter light, replicate 1": 1.23e5, "firefly reporter light, replicate 2": 1.45e5, "Renilla control light, replicate 1": 1.38e6, "Renilla control light, replicate 2": 1.70e6}
{"gene knocked down": "CG8519", "dsRNA": "DRSC26203", "firefly reporter light, replicate 1": 4.55e5, "firefly reporter light, replicate 2": 3.62e5, "Renilla control light, replicate 1": 6.94e5, "Renilla control light, replicate 2": 6.32e5}
{"gene knocked down": "CG4374", "dsRNA": "DRSC15570", "firefly reporter light, replicate 1": 1.99e5, "firefly reporter light, replicate 2": 2.54e5, "Renilla control light, replicate 1": 2.88e6, "Renilla control light, replicate 2": 2.81e6}
{"gene knocked down": "CG4374", "dsRNA": "DRSC27482", "firefly reporter light, replicate 1": 5.46e5, "firefly reporter light, replicate 2": 5.60e5, "Renilla control light, replicate 1": 6.32e5, "Renilla control light, replicate 2": 6.90e5}
{"gene knocked down": "CG17270", "dsRNA": "DRSC15209", "firefly reporter light, replicate 1": 1.51e5, "firefly reporter light, replicate 2": 2.61e5, "Renilla control light, replicate 1": 1.10e6, "Renilla control light, replicate 2": 1.57e6}
{"gene knocked down": "nerfin-1", "dsRNA": "DRSC08729", "firefly reporter light, replicate 1": 81830, "firefly reporter light, replicate 2": 90721, "Renilla control light, replicate 1": 1.20e6, "Renilla control light, replicate 2": 1.58e6}
{"gene knocked down": "Tdh", "dsRNA": "DRSC11788", "firefly reporter light, replicate 1": 45076, "firefly reporter light, replicate 2": 51296, "Renilla control light, replicate 1": 2.67e5, "Renilla control light, replicate 2": 2.70e5}
{"gene knocked down": "CG4363", "dsRNA": "DRSC04465", "firefly reporter light, replicate 1": 2.92e5, "firefly reporter light, replicate 2": 2.72e5, "Renilla control light, replicate 1": 1.81e6, "Renilla control light, replicate 2": 1.49e6}
{"gene knocked down": "CG6749", "dsRNA": "DRSC10704", "firefly reporter light, replicate 1": 2.94e5, "firefly reporter light, replicate 2": 2.07e5, "Renilla control light, replicate 1": 2.79e6, "Renilla control light, replicate 2": 2.28e6}
{"gene knocked down": "Shawl", "dsRNA": "DRSC02209", "firefly reporter light, replicate 1": 1.77e5, "firefly reporter light, replicate 2": 1.79e5, "Renilla control light, replicate 1": 1.66e6, "Renilla control light, replicate 2": 1.51e6}
{"gene knocked down": "Shawl", "dsRNA": "DRSC02748", "firefly reporter light, replicate 1": 3.70e5, "firefly reporter light, replicate 2": 2.39e5, "Renilla control light, replicate 1": 2.88e6, "Renilla control light, replicate 2": 1.79e6}
{"gene knocked down": "Shawl", "dsRNA": "DRSC24307", "firefly reporter light, replicate 1": 6.86e5, "firefly reporter light, replicate 2": 7.54e5, "Renilla control light, replicate 1": 1.26e6, "Renilla control light, replicate 2": 1.21e6}
{"gene knocked down": "Ubr3", "dsRNA": "DRSC17987", "firefly reporter light, replicate 1": 30451, "firefly reporter light, replicate 2": 44755, "Renilla control light, replicate 1": 4.69e5, "Renilla control light, replicate 2": 3.63e5}
{"gene knocked down": "Ubr3", "dsRNA": "DRSC17997", "firefly reporter light, replicate 1": 2.53e5, "firefly reporter light, replicate 2": 1.88e5, "Renilla control light, replicate 1": 2.79e6, "Renilla control light, replicate 2": 2.01e6}
{"gene knocked down": "Ubr3", "dsRNA": "DRSC27473", "firefly reporter light, replicate 1": 6.19e5, "firefly reporter light, replicate 2": 4.81e5, "Renilla control light, replicate 1": 9.18e5, "Renilla control light, replicate 2": 8.92e5}
{"gene knocked down": "Ubr3", "dsRNA": "DRSC29072", "firefly reporter light, replicate 1": 4.88e5, "firefly reporter light, replicate 2": 5.60e5, "Renilla control light, replicate 1": 1.32e6, "Renilla control light, replicate 2": 1.24e6}
{"gene knocked down": "yellow-e", "dsRNA": "DRSC12966", "firefly reporter light, replicate 1": 1.97e5, "firefly reporter light, replicate 2": 2.30e5, "Renilla control light, replicate 1": 3.85e5, "Renilla control light, replicate 2": 5.74e5}
{"gene knocked down": "yellow-e", "dsRNA": "DRSC16563", "firefly reporter light, replicate 1": 45676, "firefly reporter light, replicate 2": 76656, "Renilla control light, replicate 1": 1.36e6, "Renilla control light, replicate 2": 1.66e6}
{"gene knocked down": "Rbp9", "dsRNA": "DRSC00416", "firefly reporter light, replicate 1": 85003, "firefly reporter light, replicate 2": 1.13e5, "Renilla control light, replicate 1": 4.96e5, "Renilla control light, replicate 2": 8.77e5}
{"gene knocked down": "Rbp9", "dsRNA": "DRSC00779", "firefly reporter light, replicate 1": 6.06e5, "firefly reporter light, replicate 2": 4.85e5, "Renilla control light, replicate 1": 9.52e5, "Renilla control light, replicate 2": 5.04e5}
{"gene knocked down": "Rbp9", "dsRNA": "DRSC29834", "firefly reporter light, replicate 1": 6.70e5, "firefly reporter light, replicate 2": 3.84e5, "Renilla control light, replicate 1": 1.31e6, "Renilla control light, replicate 2": 1.33e6}
{"gene knocked down": "Cul6", "dsRNA": "DRSC09830", "firefly reporter light, replicate 1": 7.85e5, "firefly reporter light, replicate 2": 8.14e5, "Renilla control light, replicate 1": 1.45e6, "Renilla control light, replicate 2": 2.16e6}
{"gene knocked down": "CG31075", "dsRNA": "DRSC16016", "firefly reporter light, replicate 1": 1.48e5, "firefly reporter light, replicate 2": 1.32e5, "Renilla control light, replicate 1": 2.05e6, "Renilla control light, replicate 2": 2.43e6}
{"gene knocked down": "Kua", "dsRNA": "DRSC02100", "firefly reporter light, replicate 1": 1.60e5, "firefly reporter light, replicate 2": 2.44e5, "Renilla control light, replicate 1": 1.69e6, "Renilla control light, replicate 2": 2.11e6}
{"gene knocked down": "scramb1", "dsRNA": "DRSC09724", "firefly reporter light, replicate 1": 2.39e5, "firefly reporter light, replicate 2": 2.87e5, "Renilla control light, replicate 1": 2.94e6, "Renilla control light, replicate 2": 3.32e6}
{"gene knocked down": "scramb1", "dsRNA": "DRSC10667", "firefly reporter light, replicate 1": 3.93e5, "firefly reporter light, replicate 2": 3.33e5, "Renilla control light, replicate 1": 3.90e6, "Renilla control light, replicate 2": 3.51e6}
{"gene knocked down": "scramb1", "dsRNA": "DRSC10668", "firefly reporter light, replicate 1": 2.28e5, "firefly reporter light, replicate 2": 2.29e5, "Renilla control light, replicate 1": 2.43e6, "Renilla control light, replicate 2": 2.58e6}

Part of the list above, showing only “firefly reporter light, replicate 1”:
Shawl [DRSC24307] = 6.86e5
Ubr3 [DRSC17987] = 30451
Ubr3 [DRSC17997] = 2.53e5
Ubr3 [DRSC27473] = 6.19e5
